In PMC11171801:
Results are given in words; binding and its absence hold for the method and conditions named. In cells and extracts the contact can be indirect. A yes stands for co-enrichment or nearness to the bait. Other partners may have been found. For part of these data: Tags and fused reporters may be left off the sequences shown.

Protein sequences, listed by entry. Tags and fused reporters are not part of them.
UniProt Q96PY5: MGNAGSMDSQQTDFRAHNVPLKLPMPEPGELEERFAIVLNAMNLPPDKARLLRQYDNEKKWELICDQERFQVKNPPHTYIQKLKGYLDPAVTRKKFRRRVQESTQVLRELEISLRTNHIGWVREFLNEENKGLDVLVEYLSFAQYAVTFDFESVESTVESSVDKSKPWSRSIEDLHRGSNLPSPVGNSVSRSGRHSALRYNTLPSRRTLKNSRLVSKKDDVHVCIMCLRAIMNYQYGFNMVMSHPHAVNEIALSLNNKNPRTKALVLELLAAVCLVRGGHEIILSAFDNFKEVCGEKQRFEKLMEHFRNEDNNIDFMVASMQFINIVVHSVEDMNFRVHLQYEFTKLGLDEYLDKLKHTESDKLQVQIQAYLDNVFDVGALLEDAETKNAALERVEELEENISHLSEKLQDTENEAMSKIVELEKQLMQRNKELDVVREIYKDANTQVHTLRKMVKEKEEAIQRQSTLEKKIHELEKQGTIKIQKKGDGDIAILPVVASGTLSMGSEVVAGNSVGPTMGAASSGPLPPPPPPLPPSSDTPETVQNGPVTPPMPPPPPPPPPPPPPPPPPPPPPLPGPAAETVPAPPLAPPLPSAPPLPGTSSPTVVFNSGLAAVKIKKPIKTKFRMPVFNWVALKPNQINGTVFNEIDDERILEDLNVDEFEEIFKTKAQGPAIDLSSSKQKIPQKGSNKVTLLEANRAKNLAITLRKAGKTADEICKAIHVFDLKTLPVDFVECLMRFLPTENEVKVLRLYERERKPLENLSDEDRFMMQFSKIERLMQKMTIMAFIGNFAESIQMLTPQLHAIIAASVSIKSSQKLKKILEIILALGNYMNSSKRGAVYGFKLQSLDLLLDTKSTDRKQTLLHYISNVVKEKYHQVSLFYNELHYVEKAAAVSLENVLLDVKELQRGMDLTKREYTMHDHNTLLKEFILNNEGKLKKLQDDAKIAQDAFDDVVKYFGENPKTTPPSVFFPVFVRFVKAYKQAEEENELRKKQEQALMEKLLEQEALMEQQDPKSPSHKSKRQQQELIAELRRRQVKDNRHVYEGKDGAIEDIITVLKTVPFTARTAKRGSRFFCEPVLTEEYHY
UniProt Q7KZI7: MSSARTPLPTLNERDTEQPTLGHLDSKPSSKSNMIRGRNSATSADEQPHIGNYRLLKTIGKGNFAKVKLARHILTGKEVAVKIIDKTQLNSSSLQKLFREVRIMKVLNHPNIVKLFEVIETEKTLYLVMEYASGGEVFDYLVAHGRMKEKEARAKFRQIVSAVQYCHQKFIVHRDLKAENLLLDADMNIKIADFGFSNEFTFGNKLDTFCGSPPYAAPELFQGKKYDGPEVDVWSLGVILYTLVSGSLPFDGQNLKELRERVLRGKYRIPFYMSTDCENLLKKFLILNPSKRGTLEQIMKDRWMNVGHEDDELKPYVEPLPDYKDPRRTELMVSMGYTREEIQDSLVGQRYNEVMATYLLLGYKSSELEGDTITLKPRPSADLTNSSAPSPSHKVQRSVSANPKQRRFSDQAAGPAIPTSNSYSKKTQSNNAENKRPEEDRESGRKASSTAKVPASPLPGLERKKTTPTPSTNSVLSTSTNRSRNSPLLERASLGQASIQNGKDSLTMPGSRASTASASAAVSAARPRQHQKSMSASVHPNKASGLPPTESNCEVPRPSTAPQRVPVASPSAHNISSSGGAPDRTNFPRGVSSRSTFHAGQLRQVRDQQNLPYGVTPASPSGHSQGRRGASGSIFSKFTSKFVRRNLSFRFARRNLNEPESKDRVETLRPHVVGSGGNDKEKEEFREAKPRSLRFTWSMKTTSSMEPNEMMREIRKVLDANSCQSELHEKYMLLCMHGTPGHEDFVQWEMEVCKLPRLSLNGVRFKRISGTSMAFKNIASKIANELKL
UniProt Q9Y5S2: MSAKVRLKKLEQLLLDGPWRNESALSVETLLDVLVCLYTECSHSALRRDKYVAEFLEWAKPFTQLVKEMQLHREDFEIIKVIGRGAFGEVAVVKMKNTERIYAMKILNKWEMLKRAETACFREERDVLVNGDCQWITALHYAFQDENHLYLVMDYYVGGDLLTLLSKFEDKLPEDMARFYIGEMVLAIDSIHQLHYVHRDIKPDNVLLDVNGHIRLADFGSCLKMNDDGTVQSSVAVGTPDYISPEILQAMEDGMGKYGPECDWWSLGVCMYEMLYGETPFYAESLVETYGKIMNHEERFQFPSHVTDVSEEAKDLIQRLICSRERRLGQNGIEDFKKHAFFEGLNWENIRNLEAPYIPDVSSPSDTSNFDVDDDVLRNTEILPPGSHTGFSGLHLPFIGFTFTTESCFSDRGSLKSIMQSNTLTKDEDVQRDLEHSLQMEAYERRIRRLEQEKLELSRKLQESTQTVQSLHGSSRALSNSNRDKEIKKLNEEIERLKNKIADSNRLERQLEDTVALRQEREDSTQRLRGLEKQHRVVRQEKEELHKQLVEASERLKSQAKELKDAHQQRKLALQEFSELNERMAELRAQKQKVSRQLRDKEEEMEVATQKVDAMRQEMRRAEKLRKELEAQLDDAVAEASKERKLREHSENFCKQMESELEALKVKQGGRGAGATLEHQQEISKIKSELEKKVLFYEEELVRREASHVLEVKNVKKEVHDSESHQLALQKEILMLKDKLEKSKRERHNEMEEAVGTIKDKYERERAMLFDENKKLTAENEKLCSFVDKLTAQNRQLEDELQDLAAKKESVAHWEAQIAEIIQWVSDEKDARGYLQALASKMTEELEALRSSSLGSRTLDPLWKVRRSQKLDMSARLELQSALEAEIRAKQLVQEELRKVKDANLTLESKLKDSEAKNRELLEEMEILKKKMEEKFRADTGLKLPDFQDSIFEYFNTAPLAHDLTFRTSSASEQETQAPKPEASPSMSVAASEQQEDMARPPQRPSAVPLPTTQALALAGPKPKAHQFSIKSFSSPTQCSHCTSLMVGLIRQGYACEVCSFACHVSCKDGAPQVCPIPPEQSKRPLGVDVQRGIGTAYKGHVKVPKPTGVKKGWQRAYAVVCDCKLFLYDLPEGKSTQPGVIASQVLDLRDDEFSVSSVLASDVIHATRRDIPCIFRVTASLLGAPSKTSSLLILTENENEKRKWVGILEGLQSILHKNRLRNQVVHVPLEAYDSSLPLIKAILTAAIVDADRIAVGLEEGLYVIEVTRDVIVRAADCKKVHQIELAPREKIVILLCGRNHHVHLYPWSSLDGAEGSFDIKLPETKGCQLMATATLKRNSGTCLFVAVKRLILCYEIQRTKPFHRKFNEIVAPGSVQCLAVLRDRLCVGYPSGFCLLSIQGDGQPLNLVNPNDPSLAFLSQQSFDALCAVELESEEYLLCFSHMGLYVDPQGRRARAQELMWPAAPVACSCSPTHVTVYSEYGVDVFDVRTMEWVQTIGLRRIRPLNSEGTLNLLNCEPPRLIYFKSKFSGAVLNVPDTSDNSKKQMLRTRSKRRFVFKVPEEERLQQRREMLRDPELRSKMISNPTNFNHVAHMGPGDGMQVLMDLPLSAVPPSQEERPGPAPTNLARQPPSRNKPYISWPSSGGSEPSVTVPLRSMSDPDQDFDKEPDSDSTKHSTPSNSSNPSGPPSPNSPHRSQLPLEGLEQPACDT
UniProt P63027: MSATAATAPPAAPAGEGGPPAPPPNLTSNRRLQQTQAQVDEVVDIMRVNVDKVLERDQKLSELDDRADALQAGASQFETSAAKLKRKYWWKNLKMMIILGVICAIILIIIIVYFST
UniProt Q15836: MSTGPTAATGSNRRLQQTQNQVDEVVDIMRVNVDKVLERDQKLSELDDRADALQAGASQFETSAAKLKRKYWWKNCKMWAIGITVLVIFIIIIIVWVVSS
UniProt Q14247: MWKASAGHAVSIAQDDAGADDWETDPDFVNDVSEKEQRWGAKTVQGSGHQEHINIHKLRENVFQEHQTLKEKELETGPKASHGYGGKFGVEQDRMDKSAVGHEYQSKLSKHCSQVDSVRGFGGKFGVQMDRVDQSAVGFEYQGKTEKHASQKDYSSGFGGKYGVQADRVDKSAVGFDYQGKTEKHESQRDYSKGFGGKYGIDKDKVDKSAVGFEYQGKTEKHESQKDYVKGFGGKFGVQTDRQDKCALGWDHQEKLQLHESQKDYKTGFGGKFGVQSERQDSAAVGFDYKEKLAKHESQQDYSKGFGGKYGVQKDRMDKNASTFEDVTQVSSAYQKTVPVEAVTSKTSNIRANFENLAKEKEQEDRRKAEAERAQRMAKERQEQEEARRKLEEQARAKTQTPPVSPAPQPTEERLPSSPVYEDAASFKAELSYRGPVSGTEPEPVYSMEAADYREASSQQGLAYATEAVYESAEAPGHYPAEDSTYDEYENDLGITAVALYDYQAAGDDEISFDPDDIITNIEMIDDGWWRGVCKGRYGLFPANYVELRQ

B1: EGFP-RAI14 (protein, UniProt Q9P0K7 1-980)
chain: MKSLKAKFRKSDTNEWNKNDDRLLQAVENGDAEKVASLLGKKGASATKHDSEGKTAFHLAAAKGHVECLRVMITHGVDVTAQDTTGHSALHLAAKNSHHECIRKLLQSKCPAESVDSSGKTALHYAAAQGCLQAVQILCEHKSPINLKDLDGNIPLLLAVQNGHSEICHFLLDHGADVNSRNKSGRTALMLACEIGSSNAVEALIKKGADLNLVDSLGYNALHYSKLSENAGIQSLLLSKISQDADLKTPTKPKQHDQVSKISSERSGTPKKRKAPPPPISPTQLSDVSSPRSITSTPLSGKESVFFAEPPFKAEISSIRENKDRLSDSTTGADSLLDISSEADQQDLLSLLQAKVASLTLHNKELQDKLQAKSPKEAEADLSFDSYHSTQTDLGPSLGKPGETSPPDSKSSPSVLIHSLGKSTTDNDVRIQQLQEILQDLQKRLESSEAERKQLQVELQSRRAELVCLNNTEISENSSDLSQKLKETQSKYEEAMKEVLSVQKQMKLGLVSPESMDNYSHFHELRVTEEEINVLKQDLQNALEESERNKEKVRELEEKLVEREKGTVIKPPVEEYEEMKSSYCSVIENMNKEKAFLFEKYQEAQEEIMKLKDTLKSQMTQEASDEAEDMKEAMNRMIDELNKQVSELSQLYKEAQAELEDYRKRKSLEDVTAEYIHKAEHEKLMQLTNVSRAKAEDALSEMKSQYSKVLNELTQLKQLVDAQKENSVSITEHLQVITTLRTAAKEMEEKISNLKEHLASKEVEVAKLEKQLLEEKAAMTDAMVPRSSYEKLQSSLESEVSVLASKLKESVKEKEKVHSEVVQIRSEVSQVKREKENIQTLLKSKEQEVNELLQKFQQAQEELAEMKRYAESSSKLEEDKDKKINEMSKEVTKLKEALNSLSQLSYSTSSSKRQSQQLEALQQQVKQLQNQLAECKKQHQEVISVYRMHLLYAVQGQMDEDVQKVLKQILTMCKNQSQKK
B2: RAI14 (protein, UniProt Q9P0K7 1-980)
chain: B1 chain
B3: PHACTR4 (protein, UniProt Q8IZ21 1-702)
chain: MEDPFEEADQPTTEPGMVLDSVEAGDTTPPTKRKSKFSGFGKIFKPWKWRKKKSSDKFKETSEVLERKISMRKPREELVKRGVLLEDPEQGGEDPGKPSDAMLKNGHTTPIGNARSSSPVQVEEEPVRLASLRKAIPEEDLKKRLGSTGSQPNSEAESVPENVPKPPLLPPKRPLSSSHEASEGQAKDATSSGGTARFIISTSITTAPAATTAATSLAKTVNLSVTPSPAPRTLPAAPASTNTTATPSLTHMVPAKQPPIPPPKPAHRNSNPVIAELSQAINSGTLLSKPSPPLPPKRGIPSTSVPTLESAAAITTKTPSDEREKSTCSMGSELLPMISPRSPSPPLPTHIPPEPPRTPPFPAKTFQVVPEIEFPPSLDLHQEIPQQEDQKKEVPKRILDQNFGEPHIPSRLPPLPLHIRIQQALTSPLPMTPILEGSHRAHSLLFENSDSFSEDSSTLGRTRSLPITIEMLKVPDDEEEEEQTCPSTFSEEMTPTSVIPKLPQCLREEEEKESDSDSEGPIQYRDEEDEDESYQSALANKVKRKDTLAMKLNHRPSEPELNLNSWPCKSKEEWNEIRHQIGNTLIRRLSQRPTPEELEQRNILQPKNEADRQAEKREIKRRLTRKLSQRPTVAELLARKILRFNEYVEVTDAQDYDRRADKPWTKLTPADKAAIRKELNEFKSSEMEVHEESKHFTRYHRP
B4: CTNND1 (protein, UniProt O60716 1-968)
chain: MDDSEVESTASILASVKEQEAQFEKLTRALEEERRHVSAQLERVRVSPQDANPLMANGTLTRRHQNGRFVGDADLERQKFSDLKLNGPQDHSHLLYSTIPRMQEPGQIVETYTEEDPEGAMSVVSVETSDDGTTRRTETTVKKVVKTVTTRTVQPVAMGPDGLPVDASSVSNNYIQTLGRDFRKNGNGGPGPYVGQAGTATLPRNFHYPPDGYSRHYEDGYPGGSDNYGSLSRVTRIEERYRPSMEGYRAPSRQDVYGPQPQVRVGGSSVDLHRFHPEPYGLEDDQRSMGYDDLDYGMMSDYGTARRTGTPSDPRRRLRSYEDMIGEEVPSDQYYWAPLAQHERGSLASLDSLRKGGPPPPNWRQPELPEVIAMLGFRLDAVKSNAAAYLQHLCYRNDKVKTDVRKLKGIPVLVGLLDHPKKEVHLGACGALKNISFGRDQDNKIAIKNCDGVPALVRLLRKARDMDLTEVITGTLWNLSSHDSIKMEIVDHALHALTDEVIIPHSGWEREPNEDCKPRHIEWESVLTNTAGCLRNVSSERSEARRKLRECDGLVDALIFIVQAEIGQKDSDSKLVENCVCLLRNLSYQVHREIPQAERYQEAAPNVANNTGPHAASCFGAKKGKDEWFSRGKKPIEDPANDTVDFPKRTSPARGYELLFQPEVVRIYISLLKESKTPAILEASAGAIQNLCAGRWTYGRYIRSALRQEKALSAIADLLTNEHERVVKAASGALRNLAVDARNKELIGKHAIPNLVKNLPGGQQNSSWNFSEDTVISILNTINEVIAENLEAAKKLRETQGIEKLVLINKSGNRSEKEVRAAALVLQTIWGYKELRKPLEKEGWKKSDFQVNLNNASRSQSSHSYDDSTLPLIDRNQKSDKKPDREEIQMSNMGSNTKSLDNNYSTPNERGDHNRTLDRSGDLGDMEPLKGTTPLMQDEGQESLEEELDVLVLDDEGGQVSYPSMQKI
B5: JUP (protein, UniProt P14923 1-745)
chain: MEVMNLMEQPIKVTEWQQTYTYDSGIHSGANTCVPSVSSKGIMEEDEACGRQYTLKKTTTYTQGVPPSQGDLEYQMSTTARAKRVREAMCPGVSGEDSSLLLATQVEGQATNLQRLAEPSQLLKSAIVHLINYQDDAELATRALPELTKLLNDEDPVVVTKAAMIVNQLSKKEASRRALMGSPQLVAAVVRTMQNTSDLDTARCTTSILHNLSHHREGLLAIFKSGGIPALVRMLSSPVESVLFYAITTLHNLLLYQEGAKMAVRLADGLQKMVPLLNKNNPKFLAITTDCLQLLAYGNQESKLIILANGGPQALVQIMRNYSYEKLLWTTSRVLKVLSVCPSNKPAIVEAGGMQALGKHLTSNSPRLVQNCLWTLRNLSDVATKQEGLESVLKILVNQLSVDDVNVLTCATGTLSNLTCNNSKNKTLVTQNSGVEALIHAILRAGDKDDITEPAVCALRHLTSRHPEAEMAQNSVRLNYGIPAIVKLLNQPNQWPLVKATIGLIRNLALCPANHAPLQEAAVIPRLVQLLVKAHQDAQRHVAAGTQQPYTDGVRMEEIVEGCTGALHILARDPMNRMEIFRLNTIPLFVQLLYSSVENIQRVAAGVLCELAQDKEAADAIDAEGASAPLMELLHSRNEGTATYAAAVLFRISEDKNPDYRKRVSVELTNSLFKHDPAAWEAAQSMIPINEPYGDDMDATYRPMYSSDVPLDPLEMHMDMDGDYPIDTYSDGLRPPYPTADHMLA
B6: YKT6 (protein, UniProt O15498 1-198)
chain: MKLYSLSVLYKGEAKVVLLKAAYDVSSFSFFQRSSVQEFMTFTSQLIVERSSKGTRASVKEQDYLCHVYVRNDSLAGVVIADNEYPSRVAFTLLEKVLDEFSKQVDRIDWPVGSPATIHYPALDGHLSRYQNPREADPMTKVQAELDETKIILHNTMESLLERGEKLDDLVSKSEVLGTQSKAFYKTARKQNSCCAIM
B7: FLOT1 (protein, UniProt O75955 1-427)
chain: MFFTCGPNEAMVVSGFCRSPPVMVAGGRVFVLPCIQQIQRISLNTLTLNVKSEKVYTRHGVPISVTGIAQVKIQGQNKEMLAAACQMFLGKTEAEIAHIALETLEGHQRAIMAHMTVEEIYKDRQKFSEQVFKVASSDLVNMGISVVSYTLKDIHDDQDYLHSLGKARTAQVQKDARIGEAEAKRDAGIREAKAKQEKVSAQYLSEIEMAKAQRDYELKKAAYDIEVNTRRAQADLAYQLQVAKTKQQIEEQRVQVQVVERAQQVAVQEQEIARREKELEARVRKPAEAERYKLERLAEAEKSQLIMQAEAEAASVRMRGEAEAFAIGARARAEAEQMAKKAEAFQLYQEAAQLDMLLEKLPQVAEEISGPLTSANKITLVSSGSGTMGAAKVTGEVLDILTRLPESVERLTGVSISQVNHKPLRTA

biological target: FMNL2-birA* fusion protein (human) (UniProt Q96PY5); assay: proximity labelling; BioID validation: tagged candidate coexpressed with FMNL2-birA* in HEK293T/17, overnight biotin, lysis in Co-IP buffer (50 mM Tris pH 7.0, 150 mM NaCl, 0.5% Triton-X-100), precipitated with GFP-trap beads (MARK2: anti-DYKDDDDK beads), biotinylation detected with …

Molecule | binding
FLAG-tagged MARK2 (from UniProt Q7KZI7 1-788) | binds
GFP-tagged CDC42BPB (pEGFP-N1-Cdc42BPB) (from UniProt Q9Y5S2 1-1711) | binds
GFP-tagged VAMP2 (pEGFP VAMP2) (from UniProt P63027 1-116) | binds
GFP-tagged VAMP3 (pEGFP VAMP3) (from UniProt Q15836 1-100) | binds
GFP-tagged cortactin (pGFP Cortactin) (from UniProt Q14247 1-550) | binds
B1 | binds

biological target: FMNL2-birA* fusion protein (human) (UniProt Q96PY5); assay: proximity labelling; BioID screen with SILAC: FMNL2-birA* (Heavy) against FMNL2-mCherry control (Light), transiently expressed in HEK293T/17; 50 μM biotin for 16 h; low-salt RIPA lysate; streptavidin-agarose capture; in-gel trypsin digest and LC-MS/MS; hits with SILAC ratios twofold above the median, filtered for known contaminants

Molecule | binding
B2 | binds
B3 | binds
B4 | binds
B5 | binds
B6 | binds
B7 | binds
